# From patent US20100069244A1, “Pyridine Compounds for Combating Pests” (priority 2006, published 2010)
# Some of these results come from one statement about several compounds together. At least one compound was matched to its structure with a doubt left.
# Columns and labels:
# Assay type in all cases: in vivo
# [1] = system: Green Peach Aphid (Myzus persicae); assay: Green peach aphid, pepper leaf dip; settings: 300 ppm; pepper leaves dipped; after 5 days
# [2] = system: Cotton Aphid (Aphis gossypii); assay: Activity against cotton aphid, cotyledon dip; settings: 300 ppm; cotton cotyledons dipped; mortality counts after 5 days
# [3] = system: Cowpea Aphid (Aphis craccivora); assay: Activity against cowpea aphid, spray on potted cowpea plants; settings: 300 ppm; sprayed cowpea plants; population reduction recorded after 24, 72 and 120 hours
SMILES,mortality in comparison with untreated controls [1],mortality in comparison with untreated controls [2],mortality in comparison with untreated controls [3]
Clc1cncc(OCC2CCN2CC2=CCSC2)c1 (stereo not drawn) [Ia-200],over 90%,over 90%,
Oc1ccccc1CN1CC[C@H]1COc1cncc(Cl)c1 [Ia-29],over 90%,over 90%,over 90%
FC(F)(F)Oc1cccc(CN2CC[C@H]2COc2cncc(Cl)c2)c1 [Ia-108],over 90%,over 90%,over 90%
COC(=O)CCCN1CC[C@H]1COc1cncc(Cl)c1 [Ia-151],over 90%,over 90%,
Clc1ccc(OC[C@@H]2CCN2Cc2ccccc2P(c2ccccc2)c2ccccc2)cn1 [Ia-102],,over 90%,
Fc1cccc(N2CC[C@H]2COc2cncc(Cl)c2)c1 [Ia-167],over 90%,over 90%,over 90%
FC(F)(F)c1cccc(N2CC[C@H]2COc2cncc(Cl)c2)c1 [Ia-173],over 90%,over 90%,over 90%
Fc1cccc(CN2CC[C@H]2COc2cncc(Cl)c2)c1 [Ia-78],over 90%,over 90%,
OCCCCCN1CCC1COc1cncc(Cl)c1 (stereo not drawn) [Ia-193],over 90%,over 90%,
Clc1cncc(OC[C@@H]2CCN2Cc2cccc3ccccc23)c1 [Ia-116],over 90%,over 90%,over 90%
Clc1cc(Cl)cc(C=CCN2CCC2COc2cncc(Cl)c2)c1 (stereo not drawn) [Ia-187],over 90%,over 90%,
CC(Oc1cccnc1)C1CCCN1Cc1ccoc1 (mixture of isomers) [Ib-13],over 90%,,
CC(C)=CCCC(C)CN1CC[C@H]1COc1cncc(Cl)c1 (stereo partly drawn) [Ia-152],over 90%,over 90%,
Cc1[nH]cnc1CN1CCC1COc1cncc(Cl)c1 (stereo not drawn) [Ia-197],over 90%,over 90%,
Clc1cncc(OCC2CCN2C2c3ccccc3-c3ccccc32)c1 (stereo not drawn) [Ia-165],over 90%,,over 90%
COc1ccc(N2CC[C@H]2COc2cncc(Cl)c2)cc1 [Ia-169],over 90%,over 90%,
Clc1ccc(CN2CC[C@H]2COc2cncc(Cl)c2)cc1 [Ia-70],over 90%,over 90%,
CC(CCN1CC[C@H]1COc1ccc(Cl)nc1)CC(C)(C)C (stereo partly drawn) [Ia-125],over 90%,over 90%,
COC(=O)CCCN1CC[C@H]1COc1ccc(Cl)nc1 [Ia-146],over 90%,over 90%,
CC(C)(C)CCCN1CC[C@H]1COc1cncc(Cl)c1 [Ia-160],over 90%,over 90%,

SMILES,mortality in comparison with untreated controls [1],mortality in comparison with untreated controls [2],mortality in comparison with untreated controls [3]
COCC#Cc1cncc(OC[C@@H]2CCN2Cc2cccc(C)c2)c1 [Ia-228],over 90%,,over 90%
FC(F)(F)c1ccccc1CN1CC[C@H]1COc1ccc(Cl)nc1 [Ia-46],,over 90%,over 90%
Clc1cncc(OCC2CCN2Cc2ccc(Cl)nc2)c1 (stereo not drawn) [Ia-204],over 90%,over 90%,
Clc1ccc(OC[C@@H]2CCN2Cc2ccccc2Cl)cn1 [Ia-89],over 90%,over 90%,
Fc1ccc(Br)cc1CN1CC[C@H]1COc1cncc(Cl)c1 [Ia-112],over 90%,,over 90%
CC(C)N1CCC[C@H]1COc1cncc(Cl)c1 [Ib-43],over 90%,,
Clc1cncc(OCC2CCN2Cc2c[nH]c3ccccc23)c1 (stereo not drawn) [Ia-195],over 90%,over 90%,
CC(CN1CC[C@H]1COc1cncc(Cl)c1)c1ccccc1 (stereo partly drawn) [Ia-156],over 90%,over 90%,
Clc1cncc(OC[C@@H]2CCN2Cc2ccc(Cl)cc2Cl)c1 [Ia-69],over 90%,over 90%,
Clc1cncc(OCC2CCN2Cc2ccncc2)c1 (stereo not drawn) [Ia-210],over 90%,over 90%,
Cc1c(C)c(C)c(CN2CC[C@H]2COc2cncc(Cl)c2)c(C)c1C [Ia-113],over 90%,over 90%,
CC(=Cc1ccco1)CN1CCC1COc1cncc(Cl)c1 (stereo not drawn) [Ia-190],over 90%,over 90%,
CCCCCC(=Cc1ccccc1)CN1CCC1COc1ccc(Cl)nc1 (stereo not drawn) [Ia-124],over 90%,over 90%,
Clc1cncc(OCC2CCN2CC2CCCOC2)c1 (mixture of isomers) [Ia-198],over 90%,over 90%,
Clc1cncc(OC[C@@H]2CCN2CCCCc2ccc3c(c2)OCO3)c1 [Ia-158],over 90%,over 90%,
CC(=O)Nc1ccc(CN2CC[C@H]2COc2cncc(Cl)c2)cc1 [Ia-30],over 90%,over 90%,
Clc1cncc(OCC2CCN2CC2CCCSC2)c1 (mixture of isomers) [Ia-194],over 90%,over 90%,
Clc1cncc(OCC2CCN2CC=Cc2ccco2)c1 (stereo not drawn) [Ia-186],over 90%,over 90%,
Clc1cncc(OC[C@@H]2CCN2Cc2ccoc2)c1 [Ia-144],over 90%,over 90%,
Clc1ccc(OC[C@@H]2CCN2CCCc2ccccc2)cn1 [Ia-180],over 90%,over 90%,

SMILES,mortality in comparison with untreated controls [1],mortality in comparison with untreated controls [2],mortality in comparison with untreated controls [3]
Nc1ccc(CN2CC[C@H]2COc2cnc(Cl)c(Cl)c2)cc1 [Ia-36],over 90%,over 90%,
CCCCC(CC)CN1CC[C@H]1COc1cncc(Cl)c1 (stereo partly drawn) [Ia-140],over 90%,over 90%,
Oc1cccc(CN2CC[C@H]2COc2cncc(Cl)c2)c1 [Ia-24],over 90%,over 90%,
CC(C)Cc1cc(CN2CCC2COc2cncc(Cl)c2)on1 (stereo not drawn) [Ia-203],over 90%,over 90%,
Nc1ccc(CN2CC[C@H]2COc2cncc(Cl)c2)cc1 [Ia-27],over 90%,over 90%,
CCCCCC(=Cc1ccccc1)CN1CCC1COc1cncc(Cl)c1 (stereo not drawn) [Ia-133],over 90%,over 90%,
O=[N+]([O-])c1ccc(CN2CC[C@H]2COc2cncc(Cl)c2)cc1 [Ia-77],over 90%,over 90%,
CCCCCCCCCCCCC(C)N1CCC1COc1cncc(Cl)c1 (mixture of isomers) [Ia-221],,,over 90%
Clc1cncc(OC[C@@H]2CCCN2CC2=CCCOC2)c1 [Ib-17],over 90%,,
CC(Oc1cccnc1)C1CCCN1CC1=CCSC1 (mixture of isomers) [Ib-22],over 90%,,
Clc1cncc(OCC2CCN2Cc2[nH]c3ccccc3c2Cl)c1 (stereo not drawn) [Ia-205],over 90%,over 90%,
CC(C)(C)n1cc(CN2CCC2COc2cncc(Cl)c2)cn1 (stereo not drawn) [Ia-202],over 90%,over 90%,
CC(C)c1cc(CN2CCC2COc2cncc(Cl)c2)on1 (stereo not drawn) [Ia-211],over 90%,over 90%,
COc1ccccc1CN1CC[C@H]1COc1cncc(Cl)c1 [Ia-71],over 90%,over 90%,
Clc1cncc(OC[C@@H]2CCN2Cc2ccccc2Cl)c1 [Ia-90],over 90%,over 90%,
CCC(CN1CC[C@H]1COc1cncc(Cl)c1)OCc1ccccc1 (stereo partly drawn) [Ia-118],over 90%,,over 90%
Cc1cccc(CN2CC[C@H]2COc2cncc(Cl)c2)c1 [Ia-72],over 90%,over 90%,
FC(F)(F)c1ccccc1N1CC[C@H]1COc1cncc(Cl)c1 [Ia-174],over 90%,,over 90%
CN(C)CC1(CN2CCC2COc2cncc(Cl)c2)CCOC1 (mixture of isomers) [Ia-196],over 90%,over 90%,
